Article PMC3079779 (Toxicology and applied pharmacology, 2011)

The chains behind the UniProt entries cited, without tags or fusion partners.
UniProt P22001, whole entry: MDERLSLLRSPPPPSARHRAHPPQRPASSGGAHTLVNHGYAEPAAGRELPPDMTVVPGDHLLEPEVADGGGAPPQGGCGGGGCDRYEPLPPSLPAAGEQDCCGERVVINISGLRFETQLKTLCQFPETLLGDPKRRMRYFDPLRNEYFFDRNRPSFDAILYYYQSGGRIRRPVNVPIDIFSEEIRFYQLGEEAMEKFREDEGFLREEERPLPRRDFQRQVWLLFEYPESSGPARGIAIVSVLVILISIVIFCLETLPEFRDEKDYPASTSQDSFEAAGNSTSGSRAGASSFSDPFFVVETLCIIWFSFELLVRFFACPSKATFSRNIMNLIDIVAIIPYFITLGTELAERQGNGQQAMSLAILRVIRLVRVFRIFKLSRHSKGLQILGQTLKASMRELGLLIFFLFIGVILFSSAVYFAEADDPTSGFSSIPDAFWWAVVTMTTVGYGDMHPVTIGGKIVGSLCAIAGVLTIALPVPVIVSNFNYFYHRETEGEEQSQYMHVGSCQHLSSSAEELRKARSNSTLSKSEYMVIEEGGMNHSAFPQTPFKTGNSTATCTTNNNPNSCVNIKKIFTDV

Molecular target: human KV1.3 voltage gated K+ channel (Homo sapiens, UniProt P22001)
Test: KV1.3 thallium influx assay in KV1.3 stably transfected CHO DUKX cells

CC(C)(C)CC(C)(C)c1ccc(OCCOCC[N+](C)(C)Cc2ccccc2)cc1 [benzethonium chloride]
KV 1.3 Efficacy (inhibition of thallium influx as a % of positive control): 93 ± 20%
